PMC12245033
No constants are given. Whether binding was seen depends on the method and setting. Binding seen in cells or lysates may run through a third protein. Some results given as binding are weak or reduced against the parent protein; the word gives no strength. For some assays here: Tags and fused reporters may be left off the sequences shown.

Sequences of proteins named here, by UniProt entry; tags and fusion partners are left off.
UniProt Q14209: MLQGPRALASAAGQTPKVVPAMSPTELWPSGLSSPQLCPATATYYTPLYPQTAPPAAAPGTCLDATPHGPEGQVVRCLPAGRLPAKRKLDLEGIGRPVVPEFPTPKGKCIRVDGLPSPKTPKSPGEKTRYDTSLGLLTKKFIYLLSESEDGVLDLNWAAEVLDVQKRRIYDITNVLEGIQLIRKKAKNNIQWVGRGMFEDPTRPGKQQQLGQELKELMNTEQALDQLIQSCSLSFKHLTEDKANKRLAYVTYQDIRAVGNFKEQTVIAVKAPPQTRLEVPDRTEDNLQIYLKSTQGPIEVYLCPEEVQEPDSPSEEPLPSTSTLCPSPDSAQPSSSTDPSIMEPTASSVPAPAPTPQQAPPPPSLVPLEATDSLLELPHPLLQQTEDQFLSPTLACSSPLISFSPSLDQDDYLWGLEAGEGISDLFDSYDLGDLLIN

B1: Myc-tagged DCAF13 (protein, UniProt Q9NV06 1-445)
chain: MKVKMLSRNPDNYVRETKLDLQRVPRNYDPALHPFEVPREYIRALNATKLERVFAKPFLASLDGHRDGVNCLAKHPEKLATVLSGACDGEVRIWNLTQRNCIRTIQAHEGFVRGICTRFCGTSFFTVGDDKTVKQWKMDGPGYGDEEEPLHTILGKTVYTGIDHHWKEAVFATCGQQVDIWDEQRTNPICSMTWGFDSISSVKFNPIETFLLGSCASDRNIVLYDMRQATPLKKVILDMRTNTICWNPMEAFIFTAANEDYNLYTFDMRALDTPVMVHMDHVSAVLDVDYSPTGKEFVSASFDKSIRIFPVDKSRSREVYHTKRMQHVICVKWTSDSKYIMCGSDEMNIRLWKANASEKLGVLTSREKAAKDYNQKLKEKFQHYPHIKRIARHRHLPKSIYSQIQEQRIMKEARRRKEVNRIKHSKPGSVPLVSEKKKHVVAVVK

Tests used:
[1] = molecular target: T1, DCAF13 (human (endogenous in liver CSCs)) (UniProt Q9NV06); assay: co-IP; endogenous proteins, liver CSCs lysed in RIPA buffer, antibody 2 h, Protein A/G agarose beads, Western blot
T1 sequence: B1 chain

Flag-tagged E2F2 = Flag-tagged E2F2 (UniProt Q14209); assay: co-IP; Myc-DCAF13 and Flag-E2F2 co-transfected for 48 h into control, SNORA74A depleted or SNORA74A rescued liver CSCs; anti-Flag immunoprecipitation, blot with anti-Flag or anti-Myc

Row | Molecule | binding [1] | binding (Flag-tagged E2F2)
1 | E2F2 (from UniProt Q14209 1-437) | binds | 
2 | B1 |  | binds
